Laboratory results taken from patent US9517222B2, “Method for the treatment of senile dementia of the Alzheimer's type” (Phenomenome Discoveries Inc., priority 2007, dated 2016).

Legend:
[1] = Serum ethanolamine phospholipid levels in human cohorts (dementia severity, post-mortem pathology, age) by flow-injection MS/MS
[2] = Serum ethanolamine phospholipid ratios to PtdEt 16:0/18:0 (M01) in human cohorts
[3] = serum, females, post mortem SDAT
[4] = serum, females, post mortem control

Compound: CCCCC/C=C\C/C=C\CCCCCCCC(=O)OC(CO/C=C\CCCCCCCCCCCCCCCC)COP(=O)(O)OCCN (centres unmarked) [Metabolite M21, Plasmenyl 18:0/18:2]
- Ratio of serum levels ([1]; AD, All to CN, Male): 0.818
- Ratio of serum levels ([1]; ADAS 5-19 to CN, Male): 0.852
- Ratio of serum levels ([1]; ADAS 20-39 to 5-19, Male): 0.934
- Ratio of serum levels ([1]; ADAS 20-39 to CN, Male): 0.796
- Ratio of serum levels ([1]; ADAS 40-70 to 5-19, Male): 0.889
- Ratio of serum levels ([1]; ADAS 40-70 to 20-39, Male): 0.952
- Ratio of serum levels ([1]; ADAS 40-70 to CN, Male): 0.757
- Serum level, Mean ([1]; Cognitive Normal, Female): 0.265
- Average serum level, Mean ([1]; Cognitive Normal, Male): 0.265
- Serum level, Mean ([1]; Post Mortem Ctl, Male): 0.072
- Serum level, Mean ([1]; Post Mortem SDAT Male): 0.033
- Ratio of serum levels ([1]; Post mortem SDAT vs Control, Male): 0.464
- Serum level, Mean ([1]; SDAT, ADAS 5-19, Female): 0.219
- Average serum level, Mean ([1]; SDAT, ADAS 5-19, Male): 0.226
- Serum level, Mean ([1]; SDAT, ADAS 20-39, Female): 0.205
- Average serum level, Mean ([1]; SDAT, ADAS 20-39, Male): 0.211
- Serum level, Mean ([1]; SDAT, ADAS 40-70, Female): 0.165
- Average serum level, Mean ([1]; SDAT, ADAS 40-70, Male): 0.201
- Serum level, Mean ([1]; SDAT_all, Female): 0.195
- Average serum level, Mean ([1]; SDAT_all, Male): 0.217
- Ratio, ADAS 5-19 to CN, Female ([1]; serum level ratio, females, ADAS 5-19 vs CN): 0.826
- Ratio, ADAS 20-39 to 5-19, Female ([1]; serum level ratio, females, ADAS 20-39 vs ADAS 5-19): 0.939
- Ratio, ADAS 20-39 to CN, Female ([1]; serum level ratio, females, ADAS 20-39 vs CN): 0.776
- Ratio, ADAS 40-70 to 5-19, Female ([1]; serum level ratio, females, ADAS 40-70 vs ADAS 5-19): 0.755
- Ratio, ADAS 40-70 to 20-39, Female ([1]; serum level ratio, females, ADAS 40-70 vs ADAS 20-39): 0.804
- Ratio, ADAS 40-70 to CN, Female ([1]; serum level ratio, females, ADAS 40-70 vs CN): 0.624
- Ratio, 50-59 vs. 40-49, Female ([1]; serum level ratio, females, age 50-59 vs 40-49): 0.829
- Ratio, 60-69 vs. 40-49, Female ([1]; serum level ratio, females, age 60-69 vs 40-49): 0.763
- Ratio, 70+ vs. 40-49, Female ([1]; serum level ratio, females, age 70+ vs 40-49): 0.832
- Ratio, AD, All to CN, Female ([1]; serum level ratio, females, all AD vs cognitively normal): 0.737
- Ratio, Autopsy AD vs. Control, Female ([1]; serum level ratio, females, autopsy AD vs control): 0.414
- Ratio, 50-59 vs. 40-49, Male ([1]; serum level ratio, males, age 50-59 vs 40-49): 1.048
- Ratio, 60-69 vs. 40-49, Male ([1]; serum level ratio, males, age 60-69 vs 40-49): 0.941
- Ratio, 70+ vs. 40-49, Male ([1]; serum level ratio, males, age 70+ vs 40-49): 1.000
- Mean serum level, Age Ctl, 30-39, Female ([1]; serum, females, age 30-39): 0.294
- Mean serum level, Age Ctl, 40-49, Female ([1]; serum, females, age 40-49): 0.275
- Mean serum level, Age Ctl, 50-59, Female ([1]; serum, females, age 50-59): 0.228
- Mean serum level, Age Ctl, 60-69, Female ([1]; serum, females, age 60-69): 0.210
- Mean serum level, Age Ctl, 70+, Female ([1]; serum, females, age 70+): 0.229
- Mean serum level, Post Mortem SDAT, Female [1, 3]: 0.041
- Mean serum level, Post Mortem Ctl, Female [1, 4]: 0.100
- Mean serum level, Age Ctl, 30-39, Male ([1]; serum, males, age 30-39): 0.294
- Mean serum level, Age Ctl, 40-49, Male ([1]; serum, males, age 40-49): 0.236
- Mean serum level, Age Ctl, 50-59, Male ([1]; serum, males, age 50-59): 0.247
- Mean serum level, Age Ctl, 60-69, Male ([1]; serum, males, age 60-69): 0.222
- Mean serum level, Age Ctl, 70+, Male ([1]; serum, males, age 70+): 0.236
- Ratio of ethanolamine phospholipid ratios to M01 between cohorts ([2]; AD, All to CN, Male): 0.782
- Ratio of ethanolamine phospholipid ratios to M01 between cohorts ([2]; ADAS 5-19 to CN, Male): 0.821
- Ratio of ethanolamine phospholipid ratios to M01 between cohorts ([2]; ADAS 20-39 to CN, Male): 0.770
- Ratio of ethanolamine phospholipid ratios to M01 between cohorts ([2]; ADAS 40-70 to CN, Male): 0.738
- Average serum ethanolamine phospholipid ratio to M01, Mean ([2]; Cognitive Normal, Male, serum): 2.377
- Average serum ethanolamine phospholipid ratio to M01, Mean ([2]; SDAT, ADAS 5-19, Male, serum): 1.951
- Average serum ethanolamine phospholipid ratio to M01, Mean ([2]; SDAT, ADAS 20-39, Male, serum): 1.829
- Average serum ethanolamine phospholipid ratio to M01, Mean ([2]; SDAT, ADAS 40-70, Male, serum): 1.754
- Average serum ethanolamine phospholipid ratio to M01, Mean ([2]; SDAT_all, Male, serum): 1.857
- Ethanolamine Phospholipid Ratio to M01, Mean, Age Ctl, 30-39, Female ([2]; human serum, females aged 30-39): 2.885
- Ethanolamine Phospholipid Ratio to M01, Mean, Age Ctl, 40-49, Female ([2]; human serum, females aged 40-49): 2.537
- Ethanolamine Phospholipid Ratio to M01, Mean, Age Ctl, 50-59, Female ([2]; human serum, females aged 50-59): 2.331
- Ratio of Ethanolamine Phospholipid Ratio to M01, 50-59 vs. 40-49, Female ([2]; human serum, females aged 50-59 vs. females aged 40-49): 0.919
- Ethanolamine Phospholipid Ratio to M01, Mean, Age Ctl, 60-69, Female ([2]; human serum, females aged 60-69): 1.757
- Ratio of Ethanolamine Phospholipid Ratio to M01, 60-69 vs. 40-49, Female ([2]; human serum, females aged 60-69 vs. females aged 40-49): 0.693
- Ethanolamine Phospholipid Ratio to M01, Mean, Age Ctl, 70+_Female ([2]; human serum, females aged 70+): 1.935
- Ratio of Ethanolamine Phospholipid Ratio to M01, 70+ vs. 40-49, Female ([2]; human serum, females aged 70+ vs. females aged 40-49): 0.763
- Ratio of Ethanolamine Phospholipid Ratio to M01, 50-59 vs. 40-49, Male ([2]; human serum, males aged 50-59 vs. males aged 40-49): 1.057
- Ratio of Ethanolamine Phospholipid Ratio to M01, 60-69 vs. 40-49, Male ([2]; human serum, males aged 60-69 vs. males aged 40-49): 0.820
- Ratio of Ethanolamine Phospholipid Ratio to M01, 70+ vs. 40-49, Male ([2]; human serum, males aged 70+ vs. males aged 40-49): 0.851
- Ratio of ethanolamine phospholipid ratio to M01, ADAS 5-19 to CN, Female ([2]; serum, females, ADAS 5-19 vs cognitive normal): 0.879
- Ratio of ethanolamine phospholipid ratio to M01, ADAS 20-39 to 5-19, Female ([2]; serum, females, ADAS 20-39 vs ADAS 5-19): 0.943
- Ratio of ethanolamine phospholipid ratio to M01, ADAS 20-39 to CN, Female ([2]; serum, females, ADAS 20-39 vs cognitive normal): 0.829
- Ratio of ethanolamine phospholipid ratio to M01, ADAS 40-70 to 5-19, Female ([2]; serum, females, ADAS 40-70 vs ADAS 5-19): 0.720
- Ratio of ethanolamine phospholipid ratio to M01, ADAS 40-70 to 20-39, Female ([2]; serum, females, ADAS 40-70 vs ADAS 20-39): 0.763
- Ratio of ethanolamine phospholipid ratio to M01, ADAS 40-70 to CN, Female ([2]; serum, females, ADAS 40-70 vs cognitive normal): 0.633
- Ethanolamine phospholipid ratio to M01, Mean, SDAT, ADAS 5-19, Female ([2]; serum, females, SDAT ADAS 5-19): 2.039
- Ethanolamine phospholipid ratio to M01, Mean, SDAT, ADAS 20-39, Female ([2]; serum, females, SDAT ADAS 20-39): 1.922
- Ethanolamine phospholipid ratio to M01, Mean, SDAT, ADAS 40-70, Female ([2]; serum, females, SDAT ADAS 40-70): 1.467
- Ratio of ethanolamine phospholipid ratio to M01, AD, All to CN, Female ([2]; serum, females, all AD vs cognitive normal): 0.776
- Ethanolamine phospholipid ratio to M01, Mean, SDAT_all Female ([2]; serum, females, all SDAT): 1.798
- Ratio of ethanolamine phospholipid ratio to M01, Autopsy AD vs. Control, Female ([2]; serum, females, autopsy AD vs post mortem control): 0.674
- Ethanolamine phospholipid ratio to M01, Mean, Cognitive Normal, Female ([2]; serum, females, cognitive normal): 2.318
- Ethanolamine phospholipid ratio to M01, Mean, Post Mortem SDAT Female [2, 3]: 0.421
- Ethanolamine phospholipid ratio to M01, Mean, Post Mortem Ctl, Female [2, 4]: 0.624
- Ratio of ethanolamine phospholipid ratio to M01, ADAS 20-39 to 5-19, Male ([2]; serum, males, SDAT ADAS 20-39 vs ADAS 5-19): 0.937
- Ratio of ethanolamine phospholipid ratio to M01, ADAS 40-70 to 5-19, Male ([2]; serum, males, SDAT ADAS 40-70 vs ADAS 5-19): 0.899
- Ratio of ethanolamine phospholipid ratio to M01, ADAS 40-70 to 20-39, Male ([2]; serum, males, SDAT ADAS 40-70 vs ADAS 20-39): 0.959
- Ethanolamine phospholipid ratio to M01, Mean, Age Ctl, 30-39, Male ([2]; serum, males, age control 30-39): 2.395
- Ethanolamine phospholipid ratio to M01, Mean, Age Ctl, 40-49, Male ([2]; serum, males, age control 40-49): 2.163
- Ethanolamine phospholipid ratio to M01, Mean, Age Ctl, 50-59, Male ([2]; serum, males, age control 50-59): 2.287
- Ethanolamine phospholipid ratio to M01, Mean, Age Ctl, 60-69, Male ([2]; serum, males, age control 60-69): 1.773
- Ethanolamine phospholipid ratio to M01, Mean, Age Ctl, 70+_Male ([2]; serum, males, age control 70+): 1.840
- Ethanolamine phospholipid ratio to M01, Mean, Post Mortem SDAT Male ([2]; serum, males, post mortem SDAT): 0.371
- Ratio of ethanolamine phospholipid ratio to M01, SDAT vs Control (post mortem, males) ([2]; serum, males, post mortem SDAT vs post mortem control): 0.605
- Ethanolamine phospholipid ratio to M01, Mean, Post Mortem Ctl, Male ([2]; serum, males, post mortem control): 0.613

Some values come without a unit; they compare only within their column.
